Test results: patent US20260258049A1, “Molecules and Methods Related to Treatment of Uncontrolled Cellular Proliferation” (ST. JUDE CHILDREN'S RESEARCH HOSPITAL, priority 2019, published 2026)

Test: In vivo pharmacokinetic (PK) study
Conditions: NSG mice, single i.p. dose

CCCn1cc(-c2nc(Nc3ccc(C(=O)NCCCCNc4cccc5c4C(=O)N(C4CCC(=O)NC4=O)C5=O)cc3)nc3[nH]ccc23)cn1 (centres unmarked) [SJ000988497]
UClast (dose column prints 0 (30 mg/kg elsewhere in the source), mouse 300-302, listed as compound 7, 30 mg/kg): 350 hr*ng/mL, 759.1 hr*ng/mL, 248.2 hr*ng/mL
UClast (dose column prints 00 (100 mg/kg elsewhere in the source), mouse 303-305, listed as compound 7, 100 mg/kg): 884.7 hr*ng/mL, 179.3 hr*ng/mL, 459 hr*ng/mL

Some entries of the source have several records that differ or are many. Only these are listed. An entry can have further records. Results that share an entry do not match, cause unknown; they may come from other doses, times, organisms or constructs than stated.
